# Experimental data: PubChem BioAssay AID330 (DTP/NCI, 2004)
# The list does not hold the whole screen: it gathers tests that were run many times, whatever their T/C, doses with no T/C, and many T/C values between a quarter and a half above the control. Other doses and runs of a compound stand elsewhere. T/C: endpoint of the treated group in % of that of the vehicle group. Some entries give survivors of the animals treated and no T/C: the source files T/C as zero there, which appears to mark a toxic dose or a test without result, not a measured value. Some doses without a T/C left all or most animals alive at the check, yet need not have been tolerated: the source hardly ever lists a survival T/C far under the control, and the zero likely stands for such cases as well. Survivors were counted at the toxicity check, usually on the fifth day, unless a day is given; later deaths do not show. Schedule codes are those of the source, read here as Q, the interval in days (D) or hours (H), X, the number of doses. Some doses were run more than once; the results are listed from low to high. Where survival is the endpoint, this PubChem deposit counts one and a half times the control or more as active, and values a quarter to a half above the control carry no call in these data; other NCI protocols may use other cut-offs. Signs of the kind (2×) stand for listed records that agree. Some T/C values carry the count of animals alive at the toxicity check (mostly the fifth day); where none is given, no animal had died by that day.
# System: P388 leukemia ip, CD2F1 mice, survival T/C
# Experiment: NCI In Vivo Anticancer Drug Screen. Data for tumor model P388 Leukemia (intraperitoneal) in CD2F1 (CDF1) mice
# Conditions: T/C endpoint: median survival time, higher T/C = longer survival
# [1] = dose: 100.0 mg/kg/injection, schedule: Q01DX009 (ip), vehicle: Klucel (hydroxypropylcellulose) (HPC)
# [2] = dose: 200.0 mg/kg/injection, schedule: Q01DX005 (ip), vehicle: saline with Tween-80
# [3] = dose: 200.0 mg/kg/injection, schedule: Q01DX005 (ip), vehicle: Klucel (hydroxypropylcellulose) (HPC)
# [4] = dose: 100.0 mg/kg/injection, schedule: Q04DX003 (ip), vehicle: saline with Tween-80
# [5] = dose: 100.0 mg/kg/injection, schedule: Q01DX005 (ip), vehicle: saline with Tween-80
structure (smiles),measurement,setting,value
CN(CCCNc1c2ccccc2nc2ccccc12)CCCNc1c2ccccc2nc2ccccc12,T/C,"dose: 2.5 mg/kg/injection, schedule: Q01DX009 (ip), vehicle: other",130 % of control (2×)
same,T/C,"dose: 5.0 mg/kg/injection, schedule: Q01DX009 (ip), vehicle: other",131 [5 of 6 alive] and 144 % of control
same,survivor count,"dose: 10.0 mg/kg/injection, schedule: Q01DX009 (ip), vehicle: other",0 of 6 and 1 of 6
same,survivor count,"dose: 20.0 mg/kg/injection, schedule: Q01DX009 (ip), vehicle: other",0 of 6
same,survivor count,"dose: 40.0 mg/kg/injection, schedule: Q01DX009 (ip), vehicle: other",0 of 6
CCN(c1ccccc1)S(=O)(=O)c1cc(N)ccc1C,survivor count,[1],6 of 6
O=c1oc(-c2cccc([N+](=O)[O-])c2)ns1,survivor count,"dose: 75.0 mg/kg/injection, schedule: Q01DX009 (ip), vehicle: Klucel (hydroxypropylcellulose) (HPC)",1 of 6
same,survivor count,"dose: 150.0 mg/kg/injection, schedule: Q01DX009 (ip), vehicle: Klucel (hydroxypropylcellulose) (HPC)",0 of 6
same,survivor count,"dose: 300.0 mg/kg/injection, schedule: Q01DX009 (ip), vehicle: Klucel (hydroxypropylcellulose) (HPC)",0 of 6
O=C1C=C(c2ccccc2)S(=O)(=O)c2ccc(O)cc21,survivor count,[2],0 of 6
CCOP(=O)(O)SP(=O)(O)OCC.CCOP(=O)(O)SP(=O)(O)OCC.[Co],survivor count,"dose: 200.0 mg/kg/injection, schedule: Q01DX001 (ip), vehicle: saline",0 of 6
same,survivor count,"dose: 400.0 mg/kg/injection, schedule: Q01DX001 (ip), vehicle: saline",0 of 6
O=C(Nc1ccccc1)Sc1ccc(Cl)cc1,survivor count,[2],5 of 6
COc1ccc(/C=C/C(=O)CCC(=O)O)cc1OC,T/C,"dose: 100.0 mg/kg/injection, schedule: Q01DX009 (ip), vehicle: saline",133 % of control
same,T/C,"dose: 200.0 mg/kg/injection, schedule: Q01DX009 (ip), vehicle: saline",133 % of control
same,survivor count,"dose: 400.0 mg/kg/injection, schedule: Q01DX009 (ip), vehicle: saline",1 of 6
COc1cc2c(cc1NC(=O)N(CCCl)N=O)-c1ccccc1C2,T/C,"dose: 43.25 mg/kg/injection, schedule: Q04DX003 (ip), vehicle: Klucel (hydroxypropylcellulose) (HPC)",125 % of control
same,T/C,"dose: 86.5 mg/kg/injection, schedule: Q04DX003 (ip), vehicle: Klucel (hydroxypropylcellulose) (HPC)",144 % of control [5 of 6 alive]
same,T/C,"dose: 175.0 mg/kg/injection, schedule: Q04DX003 (ip), vehicle: Klucel (hydroxypropylcellulose) (HPC)",144 % of control
CC(=O)CCCCCCCCCCCCCCC1=C(C)C(=O)OC1=O,survivor count,[3],5 of 5
CCOC(=O)c1cnc(NCCCCCCNc2ncc(C(=O)OCC)c(=O)[nH]2)[nH]c1=O,survivor count,[3],6 of 6
C[C@]12CC[C@@H]3c4ccc(OCCCO)c([N+](=O)[O-])c4CC[C@H]3[C@@H]1CCC2=O,survivor count,"dose: 400.0 mg/kg/injection, schedule: Q01DX005 (ip), vehicle: saline with Tween-80",6 of 6
CC(=O)Nc1cc2cc(NS(=O)(=O)c3cc(C(F)(F)F)cc(C(F)(F)F)c3)ccc2oc1=O,survivor count,"dose: 6.0 mg/kg/injection, schedule: Q01DX005 (ip), vehicle: Klucel + Tween-80",6 of 6
same,survivor count,"dose: 25.0 mg/kg/injection, schedule: Q01DX005 (ip), vehicle: Klucel + Tween-80",6 of 6
same,survivor count,"dose: 50.0 mg/kg/injection, schedule: Q01DX005 (ip), vehicle: Klucel + Tween-80",6 of 6
same,survivor count,"dose: 100.0 mg/kg/injection, schedule: Q01DX005 (ip), vehicle: Klucel + Tween-80",3 of 6
same,survivor count,"dose: 200.0 mg/kg/injection, schedule: Q01DX005 (ip), vehicle: Klucel + Tween-80",2 of 6
C[C@]12CC[C@H](O)C[C@@H]1CC[C@@H]1[C@@H]2C(=O)C[C@@]2(C)[C@H]1CC[C@]2(O)C(=O)CBr,T/C,[4],140 % of control
same,T/C,"dose: 200.0 mg/kg/injection, schedule: Q04DX003 (ip), vehicle: saline with Tween-80",140 % of control
same,T/C,"dose: 400.0 mg/kg/injection, schedule: Q04DX003 (ip), vehicle: saline with Tween-80",140 % of control
CN(c1ccccc1)P(=O)(N1CC1)N1CC1,T/C,"dose: 16.5 mg/kg/injection, schedule: Q04DX003 (ip), vehicle: saline with Tween-80",140 % of control
same,T/C,"dose: 25.0 mg/kg/injection, schedule: Q01DX009 (ip), vehicle: saline sonified",127 % of control
same,survivor count,"dose: 50.0 mg/kg/injection, schedule: Q01DX009 (ip), vehicle: saline sonified",6 of 6
same,survivor count,"dose: 50.0 mg/kg/injection, schedule: Q04DX003 (ip), vehicle: saline with Tween-80",5 of 6
same,survivor count,[4],3 of 6
CC1(C)OC(c2ccccc2)=CC1=O,survivor count,"dose: 400.0 mg/kg/injection, schedule: Q04DX002 (ip), vehicle: saline with Tween-80",1 of 6
O=P1(c2ccccc2)C=C(c2ccccc2)NC(c2ccccc2)=C1,survivor count,[5],6 of 6
COc1ccc2c(=O)c(-c3cc4c(cc3OC)OCO4)coc2c1,survivor count,"dose: 32.0 mg/kg/injection, schedule: Q01DX005 (ip), vehicle: Klucel (hydroxypropylcellulose) (HPC)",6 of 6
same,survivor count,"dose: 64.0 mg/kg/injection, schedule: Q01DX005 (ip), vehicle: Klucel (hydroxypropylcellulose) (HPC)",6 of 6
O=C1CCCC(O)=C1[Se]C1=C(O)CCCC1=O,survivor count,"dose: 100.0 mg/kg/injection, schedule: Q04DX002 (ip), vehicle: saline",0 of 6
same,survivor count,"dose: 200.0 mg/kg/injection, schedule: Q04DX002 (ip), vehicle: saline",1 of 6
same,survivor count,"dose: 400.0 mg/kg/injection, schedule: Q04DX002 (ip), vehicle: saline",0 of 6
CC(C)C1=CC23CCC4C(C)(C(N)=O)CCCC4(C)C2CC1C1C(=O)OC(=O)C13 (centres undefined),survivor count,"dose: 200.0 mg/kg/injection, schedule: Q01DX001 (ip), vehicle: saline with Tween-80",2 of 6
same,survivor count,"dose: 400.0 mg/kg/injection, schedule: Q01DX001 (ip), vehicle: saline with Tween-80",0 of 6
CCCCSC1=CC(=O)c2c(O)ccc(O)c2C1=O,survivor count,"dose: 100.0 mg/kg/injection, schedule: Q04DX002 (ip), vehicle: DMSO",0 of 6
same,survivor count,"dose: 200.0 mg/kg/injection, schedule: Q04DX002 (ip), vehicle: DMSO",0 of 6
same,survivor count,"dose: 400.0 mg/kg/injection, schedule: Q04DX002 (ip), vehicle: DMSO",0 of 5
C/C=C1/CN2CCc3c([nH]c4ccccc34)C2CC1C(Cc1c[n+]2c(c3[nH]c4ccccc4c13)CC1C(C(=O)OC)=COC(C)C1C2)C(=O)OC (centres undefined),survivor count,"dose: 200.0 mg/kg/injection, schedule: Q01DX009 (ip), vehicle: saline with Tween-80",0 of 6
COc1ccc(C(c2cc3c(cc2O)OCO3)N2CCOCC2)cc1 (centres undefined),survivor count,"dose: 480.0 mg/kg/injection, schedule: Q01DX005 (ip), vehicle: saline with Tween-80",4 of 6
Nc1nc(Sc2ccc([N+](=O)[O-])c3nonc23)c2[nH]cnc2n1,survivor count,"dose: 50.0 mg/kg/injection, schedule: Q01DX009 (ip), vehicle: Klucel (hydroxypropylcellulose) (HPC)",5 of 6
same,survivor count,[1],1 of 6
same,survivor count,"dose: 200.0 mg/kg/injection, schedule: Q01DX009 (ip), vehicle: Klucel (hydroxypropylcellulose) (HPC)",0 of 6
O=c1[nH]nc2ccc(n[nH]c1=O)c1ccccc21,survivor count,[5],1 of 6
same,survivor count,[2],0 of 6
